For one sequence, binding signal results are on record in paper PMC5996148.

The list shows a part of the results. For some assays here: Construct or isoform of the protein are uncertain.

Test in all cases: protein microarray (ProtoArray v5.0), streptavidin-Alexa Fluor 647
Conditions in all cases: 3'-biotin; 20 mM Tris (pH 7.5), 5 mM MgCl2, 100 mM KCl, 0.1% Tween-20, A/T-rich and random oligonucleotide blockers; temperature not stated; high values mean tight binding

One assay concerns the target T1, FGF13 (UniProt Q92913).
T1 sequence: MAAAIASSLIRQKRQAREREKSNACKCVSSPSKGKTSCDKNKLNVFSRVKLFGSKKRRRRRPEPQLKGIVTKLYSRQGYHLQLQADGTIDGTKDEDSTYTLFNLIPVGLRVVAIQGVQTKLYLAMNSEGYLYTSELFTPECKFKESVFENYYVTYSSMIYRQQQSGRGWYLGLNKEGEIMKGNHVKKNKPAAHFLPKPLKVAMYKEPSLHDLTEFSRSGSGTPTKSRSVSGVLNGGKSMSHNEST

Another assay concerns FGF21 (human).
In the next assay the target is T2, FKBPL (UniProt Q9UIM3).
T2 sequence: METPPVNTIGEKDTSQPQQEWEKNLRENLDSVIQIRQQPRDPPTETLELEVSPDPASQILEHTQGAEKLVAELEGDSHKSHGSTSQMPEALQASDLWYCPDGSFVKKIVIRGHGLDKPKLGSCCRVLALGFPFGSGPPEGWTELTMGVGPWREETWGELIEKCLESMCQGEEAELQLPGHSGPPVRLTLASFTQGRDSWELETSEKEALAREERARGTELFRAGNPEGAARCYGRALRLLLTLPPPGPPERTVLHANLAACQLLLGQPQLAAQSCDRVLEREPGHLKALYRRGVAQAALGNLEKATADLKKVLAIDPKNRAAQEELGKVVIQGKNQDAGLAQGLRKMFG

The subject of a further assay is FLJ10781 (human).
A further assay deals with FLJ20160 (human).
The next assay deals with FLJ20489 (human).
In another assay the test system is FLJ25758 (human).
The test system of a further assay is FLJ40504 (human).
The next assay concerns FLJ43980 (human).
A further assay deals with FLOT2 (human).
The test system of the next assay is FLT3LG (human).
The next assay concerns FOXP1 (human).
Another assay deals with FREQ (human).
The next assay concerns FRMD8 (human).
A further assay relates to FRS3 (human).
For another assay, the system named is FTL (human).
Another assay has as its system FUNDC2 (human).
For a further assay, the system named is FXC1 (human).
Another assay deals with FXYD1 (human).
In the next assay the test system is FYCO1 (human).

For “GGTGACAGGGGTATGGGGAGGGG [G4-2 biotinylated (Ct1)]”, the binding signal is 4.17 z-score with FGF13; -0.363 z-score with FGF21 (human); -0.388 z-score with FKBPL; 4.17 z-score in the assay with FLJ10781 (human); -0.378 z-score in the assay with FLJ20160 (human); -0.386 z-score with FLJ20489 (human). For the same sequence, the binding signal with FLJ25758 (human) was -0.382 z-score; in the assay on FLJ40504 (human), -0.378 z-score; with FLJ43980 (human), -0.397 z-score; in the assay on FLOT2 (human) it was -0.383 z-score; in the assay with FLT3LG (human), -0.38 z-score; in the assay on FOXP1 (human), -0.394 z-score. Besides, the binding signal is -0.395 z-score with FREQ (human); -0.373 z-score with FRMD8 (human); -0.392 z-score in the assay on FRS3 (human); -0.39 z-score in the assay with FTL (human); -0.392 z-score in the assay with FUNDC2 (human); -0.389 z-score in the assay on FXC1 (human). In addition, the binding signal was -0.379 z-score in the assay on FXYD1 (human) and -0.374 z-score with FYCO1 (human).
